No constants are given. Whether binding was seen depends on the method and setting. Binding seen in cells or lysates may run through a third protein. Here binding means that the protein was enriched with, or labelled near, the bait; the list need not be complete.
Legend:
[1] = molecular target: minichromosome maintenance complex component II (MCM2) (human (endogenous in HEK293XT)) (UniProt P49736); assay: affinity purification with mass spectrometry; IP of the endogenous bait (10 µg antibody on Dynabeads Protein G, overnight 4°C) from HEK293XT lysate (150 mM NaCl, 50 mM Tris pH 7.5, 1% IGPAL-CA-630, 5% glycerol), triplicate, TMT11 LC-MS/MS; hit found in both arms, with and without RNase ('direct'), or arm not told
[2] = molecular target: minichromosome maintenance complex component II (MCM2) (human (endogenous in HEK293XT)) (UniProt P49736); assay: as above; remark: listed apart in the source
[3] = molecular target: minichromosome maintenance complex component II (MCM2) (human (endogenous in HEK293XT)) (UniProt P49736); assay: affinity purification with mass spectrometry; same IP-MS, arm with RNase treatment of the HEK293XT lysate (5 µl of 10 mg/ml RNase per ~200 µl, 20 min on ice); hits found only here are called 'RNA-shielded'

Chains of the proteins cited; added tags and fusions are not shown.
UniProt P49736: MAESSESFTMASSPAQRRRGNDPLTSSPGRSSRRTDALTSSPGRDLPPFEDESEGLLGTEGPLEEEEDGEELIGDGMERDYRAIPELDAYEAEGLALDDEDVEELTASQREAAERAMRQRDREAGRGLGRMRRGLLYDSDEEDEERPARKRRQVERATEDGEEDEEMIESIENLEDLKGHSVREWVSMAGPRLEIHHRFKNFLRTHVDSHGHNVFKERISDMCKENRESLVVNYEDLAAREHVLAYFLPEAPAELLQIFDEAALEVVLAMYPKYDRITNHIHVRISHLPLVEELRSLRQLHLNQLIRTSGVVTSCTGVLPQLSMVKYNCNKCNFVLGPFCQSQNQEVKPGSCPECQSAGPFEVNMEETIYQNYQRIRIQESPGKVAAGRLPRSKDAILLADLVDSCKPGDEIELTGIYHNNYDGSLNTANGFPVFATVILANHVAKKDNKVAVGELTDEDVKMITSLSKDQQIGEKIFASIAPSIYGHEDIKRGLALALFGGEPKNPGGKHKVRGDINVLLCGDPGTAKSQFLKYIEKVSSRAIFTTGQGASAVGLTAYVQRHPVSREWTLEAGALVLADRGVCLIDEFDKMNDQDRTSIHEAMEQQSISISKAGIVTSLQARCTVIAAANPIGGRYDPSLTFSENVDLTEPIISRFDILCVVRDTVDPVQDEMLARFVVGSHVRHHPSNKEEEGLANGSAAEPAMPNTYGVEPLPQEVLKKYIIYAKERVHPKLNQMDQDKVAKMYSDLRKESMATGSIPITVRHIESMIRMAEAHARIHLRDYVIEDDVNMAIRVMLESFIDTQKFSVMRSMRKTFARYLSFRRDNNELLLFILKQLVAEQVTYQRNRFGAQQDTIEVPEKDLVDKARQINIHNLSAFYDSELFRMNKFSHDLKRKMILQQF
UniProt Q9Y5B9: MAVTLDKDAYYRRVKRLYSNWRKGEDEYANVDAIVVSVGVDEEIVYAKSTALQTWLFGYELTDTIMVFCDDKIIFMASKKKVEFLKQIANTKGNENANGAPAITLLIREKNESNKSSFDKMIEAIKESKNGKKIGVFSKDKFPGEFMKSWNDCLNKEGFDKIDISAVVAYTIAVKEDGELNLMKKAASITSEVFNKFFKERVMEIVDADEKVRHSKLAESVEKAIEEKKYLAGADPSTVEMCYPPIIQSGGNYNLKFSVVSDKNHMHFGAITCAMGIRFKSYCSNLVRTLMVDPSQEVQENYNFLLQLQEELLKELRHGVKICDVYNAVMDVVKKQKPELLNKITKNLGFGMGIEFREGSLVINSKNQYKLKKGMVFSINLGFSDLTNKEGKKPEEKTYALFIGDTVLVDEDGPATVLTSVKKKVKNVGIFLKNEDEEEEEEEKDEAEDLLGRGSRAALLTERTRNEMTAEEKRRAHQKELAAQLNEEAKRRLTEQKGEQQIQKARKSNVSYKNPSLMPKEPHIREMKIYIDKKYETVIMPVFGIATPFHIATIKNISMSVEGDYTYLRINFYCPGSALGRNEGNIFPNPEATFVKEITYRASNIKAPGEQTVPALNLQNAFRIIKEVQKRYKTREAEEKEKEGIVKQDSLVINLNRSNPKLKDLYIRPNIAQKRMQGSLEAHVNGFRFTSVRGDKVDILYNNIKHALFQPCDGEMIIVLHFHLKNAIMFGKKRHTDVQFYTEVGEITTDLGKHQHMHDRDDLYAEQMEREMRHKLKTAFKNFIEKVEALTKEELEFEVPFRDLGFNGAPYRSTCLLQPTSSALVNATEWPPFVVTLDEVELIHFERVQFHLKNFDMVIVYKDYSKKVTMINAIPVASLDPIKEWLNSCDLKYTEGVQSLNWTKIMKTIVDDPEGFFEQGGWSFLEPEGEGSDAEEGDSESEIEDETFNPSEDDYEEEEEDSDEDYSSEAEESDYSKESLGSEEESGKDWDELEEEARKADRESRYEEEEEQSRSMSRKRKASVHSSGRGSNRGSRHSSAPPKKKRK

SUPT16H (from UniProt Q9Y5B9 1-1047)
binding [1]: binds

B1: DNAJC9 (protein, UniProt Q8WXX5 1-260)
chain: MGLLDLCEEVFGTADLYRVLGVRREASDGEVRRGYHKVSLQVHPDRVGEGDKEDATRRFQILGKVYSVLSDREQRAVYDEQGTVDEDSPVLTQDRDWEAYWRLLFKKISLEDIQAFEKTYKGSEEELADIKQAYLDFKGDMDQIMESVLCVQYTEEPRIRNIIQQAIDAGEVPSYNAFVKESKQKMNARKRRAQEEAKEAEMSRKELGLDEGVDSLKAAIQSRQKDRQKEMDNFLAQMEAKYCKSSKGGGKKSALKKEKK
binding [2]: binds

B2: NCOA5 (protein, UniProt Q9HCD5 1-579)
chain: MNTAPSRPSPTRRDPYGFGDSRDSRRDRSPIRGSPRREPRDGRNGRDARDSRDIRDPRDLRDHRHSRDLRDHRDSRSVRDVRDVRDLRDFRDLRDSRDFRDQRDPMYDRYRDMRDSRDPMYRREGSYDRYLRMDDYCRRKDDSYFDRYRDSFDGRGPPGPESQSRAKERLKREERRREELYRQYFEEIQRRFDAERPVDCSVIVVNKQTKDYAESVGRKVRDLGMVVDLIFLNTEVSLSQALEDVSRGGSPFAIVITQQHQIHRSCTVNIMFGTPQEHRNMPQADAMVLVARNYERYKNECREKEREEIARQAAKMADEAILQERERGGPEEGVRGGHPPAIQSLINLLADNRYLTAEETDKIINYLRERKERLMRSSTDSLPGPISRQPLGATSGASLKTQPSSQPLQSGQVLPSATPTPSAPPTSQQELQAKILSLFNSGTVTANSSSASPSVAAGNTPNQNFSTAANSQPQQRSQASGNQPPSILGQGGSAQNMGPRPGAPSQGLFGQPSSRLAPASNMTSQRPVSSTGINFDNPSVQKALDTLIQSGPALSHLVSQTTAQMGQPQAPMGSYQRHY
binding [3]: binds
